The chains are these.
B1: pvr2/eIF4E1 (pvr2^+) with the single mutation A15V (protein, UniProt A0A1U8GR65 1-228)
chain: MATAEMEKTTTFDEVEKVKLNANEADDEVEEGEIVEETDDTTSYLSKEIATKHPLEHSWTFWFDNPVAKSKQAAWGSSLRNVYTFSTVEDFWGAYNNIHHPSKLVVGADLHCFKHKIEPKWEDPVCANGGTWKMSFSKGKSDTSWLYTLLAMIGHQFDHEDEICGAVVSVRGKGEKISLWTKNAANETAQVSIGKQWKQFLDYSDSVGFIFHDDAKRLDRNAKNRYTV
B2: pvr2/eIF4E1 (pvr2^+) with the single mutation V105I (protein, UniProt A0A1U8GR65 1-228)
chain: B1 chain with V15A, V105I
B3: pvr2/eIF4E1 (pvr2^+) with the single mutation K71R (protein, UniProt A0A1U8GR65 1-228)
chain: B1 chain with V15A, K71R
B4: pvr2/eIF4E1 (pvr2^+) with the single mutation D40G (protein, UniProt A0A1U8GR65 1-228)
chain: B1 chain with V15A, D40G

Positions count from the first letter of the chain named. Names and notes keep the numbering of the source. These are yes or no findings as the source states them, for the method shown. A result given as binding can be weak or reduced; the word gives no strength.

For this assay, the target named is VPg of Potato virus Y, avirulent isolate LYE84 (Potato virus Y (isolate LYE84)). In words: two-hybrid; Matchmaker GAL4 two-hybrid system 3; eIF4E1 variants fused to the GAL4 activation domain (pGADT7, AH109), VPg fused to the GAL4 binding domain (pGBKT7, Y187); after mating, growth on -LWH medium at 30°C, checked 2 to 7 days after spotting; growth as percent of pvr2^+ with VPg-PVY.
With B1, the binding entry is “binds”.
For the molecule B2, the binding result is listed as “binds”.
On to B3, for which the binding entry is recorded as “binds”.
Take B4: the binding result is given as “binds”.

These data come from PMC4973933.
